Values quoted from earlier work as cited in patent US20240247224A1, “SYSTEM AND METHOD FOR RAPID SUSCEPTIBILITY TESTING” (priority 2023, published 2024).
At least one compound was matched to its structure with a doubt left.

Assays:
[1] = system: Neisseria gonorrhoeae 49226 (QC strain); conditions: FIG. 26; cited from earlier work
K pneumoniae 700603 = conditions: FIG. 30; cited from earlier work
[2] = system: NG AR 0179 (Neisseria gonorrhoeae antibiotic resistant isolate 0179); conditions: FIG. 23; cited from earlier work
[3] = system: S aureus 29213 (QC strain); conditions: FIG. 28; cited from earlier work

C=CC1=C(C(=O)O)N2C(=O)[C@@H](NC(=O)/C(=N\OCC(=O)O)c3csc(N)n3)[C@H]2SC1 [Cefixime]
expected MIC value [1]: 0.004 to 0.03 µg/mL

C[C@@H](O)[C@H]1C(=O)N2C(C(=O)O)=C(SCCN=CN)C[C@H]12 [Imipenem]
expected MIC value (K pneumoniae 700603): 0.06 to 0.5 µg/mL

CN(C)[C@@H]1C(O)=C(C(N)=O)C(=O)[C@@]2(O)C(O)=C3C(=O)c4c(O)cccc4[C@@](C)(O)[C@H]3C[C@@H]12 [Tetracycline]
expected MIC value (per CDC agar dilution testing) [2]: 1 µg/mL
expected MIC value [3]: 0.12 to 1 µg/mL
